At least one read-out could not be matched to a standard name with certainty.
Target: T1, SV2A/LBS (Rattus norvegicus, UniProt Q02563)
T1 construct: from tissue; host or cells: rat brain (crude membranes)
Test: Scintillation proximity assay, beads coated with rat brain membranes
Assay type: binding
Conditions: [^3H]-compound 7 9 nM, WGA SPA beads, 96-well plates, 25° C., 2 h, 1% DMSO

Sequences of proteins named here, by UniProt entry; tags and fusion partners are left off.
UniProt Q02563, whole entry: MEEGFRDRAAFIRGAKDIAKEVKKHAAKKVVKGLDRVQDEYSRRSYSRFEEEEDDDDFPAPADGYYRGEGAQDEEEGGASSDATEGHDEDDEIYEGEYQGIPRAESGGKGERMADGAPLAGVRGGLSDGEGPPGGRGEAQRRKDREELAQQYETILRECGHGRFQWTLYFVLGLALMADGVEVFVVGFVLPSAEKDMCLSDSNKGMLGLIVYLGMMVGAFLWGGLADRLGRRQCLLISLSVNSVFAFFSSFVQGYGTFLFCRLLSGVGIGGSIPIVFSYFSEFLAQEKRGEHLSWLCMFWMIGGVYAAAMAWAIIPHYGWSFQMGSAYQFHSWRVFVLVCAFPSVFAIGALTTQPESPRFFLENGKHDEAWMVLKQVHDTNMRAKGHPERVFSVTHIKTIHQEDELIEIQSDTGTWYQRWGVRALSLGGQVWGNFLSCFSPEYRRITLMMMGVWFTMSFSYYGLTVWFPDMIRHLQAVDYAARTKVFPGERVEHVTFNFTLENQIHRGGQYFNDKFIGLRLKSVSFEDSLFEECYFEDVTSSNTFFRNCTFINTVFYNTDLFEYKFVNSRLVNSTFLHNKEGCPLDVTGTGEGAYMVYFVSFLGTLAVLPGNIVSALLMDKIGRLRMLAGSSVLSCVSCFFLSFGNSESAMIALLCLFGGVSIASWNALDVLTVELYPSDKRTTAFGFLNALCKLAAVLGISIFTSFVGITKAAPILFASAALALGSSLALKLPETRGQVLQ

SMILES: [N-]=[N+]=Nc1c(F)ccc(C2CC(=O)N(Cn3ccnc3)C2)c1F (single isomer, unassigned; (+)) [compound 7, (+)-4-(3-azido-2,4-difluorophenyl)-1-(1H-imidazol-1-ylmethyl)pyrrolidin-2-one]
- potency profiles (IC50 plot) in SPA: in line with studies using filtration binding assays
